Cell number after 72 h of treatment

Values as published with doi:10.1371/journal.pone.0140310, rounded.

Every entry is a combination with BMS-536924 at 1 µM: Cc1cc(N2CCOCC2)cc2[nH]c(-c3c(NC[C@@H](O)c4cccc(Cl)c4)cc[nH]c3=O)nc12

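Human melanoma cell lines in 1,536-well plates were treated with a pair of drugs for 72 h, then fixed, stained and imaged. Values are the number of DAPI-stained nuclei as a percentage of the DMSO control: 100 is no effect, lower means fewer cells. Concentrations were fixed for each drug; these are the higher of two levels. These are primary screening values without error estimates.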
Only some of the drugs and lines screened are listed, without regard to their results.

Partner,C32,COLO 829,COLO 800,WM3619,COLO 792,WM451Lu
CN(NC(=O)CC(=O)NN(C)C(=S)c1ccccc1)C(=S)c1ccccc1 at 0.03 µM,14.4,43.4,8.3,6.4,16.7,79.1
Oc1nc(-c2ccc(C(F)(F)F)cc2)nc2c1CSCC2 at 10 µM,102,127,26.6,100,42.7,84.2
CC(=O)c1c(C)c2cnc(Nc3ccc(N4CCNCC4)cn3)nc2n(C2CCCC2)c1=O at 0.2 µM,74.8,77.3,20.5,52.7,19.6,51.1
C[C@@H]1CCN(C(=O)CC#N)C[C@@H]1N(C)c1ncnc2[nH]ccc12 at 5 µM,89.9,101,40.8,114,50.9,90.8
CC(C)CCN1c2nc(Nc3cc(F)c(O)c(F)c3)ncc2N(C)C(=O)C1C (stereo not drawn) at 1 µM,87.0,97.9,35.2,68.3,47.3,69.6
COC(=O)c1sccc1S(=O)(=O)Nc1ccc(Nc2ccccc2)cc1OC at 5 µM,114,94.7,44.4,76.0,68.0,113
O=c1[nH]nc(Sc2ncc([N+](=O)[O-])s2)n1-c1ccc2c(c1)OCCO2 at 1 µM,81.1,117,34.1,75.4,80.7,82.9
NCC(=O)Nc1ccc(-n2nc(C(F)(F)F)cc2-c2ccc3c(ccc4ccccc43)c2)cc1 at 5 µM,83.1,82.5,33.6,59.0,59.1,85.0
O=C(O)C(=O)Nc1sc2c(c1C(=O)O)CCNC2 at 8.33 µM,98.2,119,37.7,96.9,66.4,85.7
Cc1cc(Nc2cc(N3CCN(C)CC3)nc(/C=C/c3ccccc3)n2)n[nH]1 at 0.2 µM,75.5,79.1,30.6,98.1,49.1,87.1
CCCCCCCCCCCC1=C(O)C(=O)C=C(O)C1=O at 6 µM,95.8,88.7,41.3,117,63.1,109
CCCS(=O)(=O)Nc1ccc(F)c(C(=O)c2c[nH]c3ncc(Cl)cc23)c1F at 0.4 µM,69.1,78.1,28.3,86.2,62.9,48.3
O=C(Oc1ccc([N+](=O)[O-])cc1)N1CCC(C(O)(c2ccc3c(c2)OCO3)c2ccc3c(c2)OCO3)CC1 at 5 µM,79.5,117,48.3,92.9,61.5,87.1
O=C(Nc1cccc(Cl)c1)Nc1ncc(CCNc2ncnc3ccsc23)s1 at 0.004 µM,64.4,78.9,19.3,87.4,37.5,73.6
O=c1cc(-c2cccc3c2Sc2ccccc2S3)oc(N2CCOCC2)c1 at 5 µM,71.5,89.9,25.6,66.9,55.7,98.0
CC1(C)NC(=O)N(c2ccc([N+](=O)[O-])c(C(F)(F)F)c2)C1=O at 5 µM,83.6,94.2,29.5,72.0,65.9,94.6
O=C(/C=C/c1cccnc1)NCCCCC1CCN(C(=O)c2ccccc2)CC1 at 0.05 µM,95.2,56.0,18.6,105,20.0,81.7
Cn1cncc1[C@@](N)(c1ccc(Cl)cc1)c1ccc2c(c1)c(-c1cccc(Cl)c1)cc(=O)n2C at 0.05 µM,71.8,95.0,27.2,77.7,34.7,79.5
COc1ccc(-c2ccc3c(N4CCOCC4)nc(N4C[C@@H](C)O[C@@H](C)C4)nc3n2)cc1CO at 0.1 µM,75.3,75.2,46.5,62.7,50.2,70.1
CS(=O)(=O)CCNCc1ccc(-c2ccc3ncnc(Nc4ccc(OCc5cccc(F)c5)c(Cl)c4)c3c2)o1 at 4 µM,71.5,88.1,23.6,75.4,32.8,68.2
Nc1ncn([C@H]2C[C@H](O)[C@@H](CO)O2)c(=O)n1 at 0.5 µM,92.2,96.6,26.4,130,63.6,106
Cc1cc(SCc2sc(-c3ccc(C(F)(F)F)c(F)c3)nc2C)ccc1OCC(=O)O at 10 µM,115,131,37.5,62.2,58.1,93.8
COc1cc(Nc2ncc(F)c(Nc3ccc4c(n3)NC(=O)C(C)(C)O4)n2)cc(OC)c1OC at 2 µM,54.6,80.4,13.8,66.2,15.7,79.4
Cc1cn(-c2cc(NC(=O)c3ccc(C)c(Nc4nccc(-c5cccnc5)n4)c3)cc(C(F)(F)F)c2)cn1 at 1 µM,67.2,116,48.7,83.3,61.2,74.8
Cc1ccc(Nc2nccc(N(C)c3ccc4c(C)n(C)nc4c3)n2)cc1S(N)(=O)=O at 2 µM,82.8,104,29.6,81.5,42.9,84.8
Nc1cccc2c1CN(C1CCC(=O)NC1=O)C2=O (stereo not drawn) at 5 µM,72.6,101,30.4,86.6,52.5,76.5
CO[C@@H]1[C@H](N(C)C(=O)c2ccccc2)C[C@H]2O[C@]1(C)n1c3ccccc3c3c4c(c5c6ccccc6n2c5c31)C(=O)NC4 at 0.4 µM,94.4,76.3,24.0,84.1,41.9,82.0